This note sets out measurements from patent US6083677A, “Photographic element containing yellow dye-forming photographic coupler” (Eastman Kodak Company, priority 1998, dated 2000).

A short description of this data set: Monochrome photographic coatings, stepwise exposure, E-6 process; Status A blue transmission density (Dmax) and activity relative to Cmp-8.
Where [1] appears, read: Table IV coating set, standard levels.
Setting [2] is: Table IV, standard levels, Status A blue transmission density.
The mark [3] stands for this setting: Table V, silver emulsion and coupler laydown reduced to 70% of standard levels.

As to `CCCCCCCCCCCCCCCCCCOc1ccc(S(=O)(=O)Nc2ccccc2Cl)cc1NC(=O)C(C(=O)N1CCc2ccccc21)N1C(=O)C(OC)N(C)C1=O` (stereo not shown) [Cmp-5], the “increase in activity over comparative Cmp-8” value (Table IV coating set) amounted to 53%. The “Activity Ratio: Dmax(Compound)/Dmax(Cmp8)” value (“Activity Ratio” below) under setting [1] came to 1.53. Besides, under setting [2], the Dmax turned out to be 4.29.

On to `CCCCCCCCCCCCOC(=O)c1ccc(Cl)c(NC(=O)C(C(=O)C(C)(C)C)N2C(=O)C(OCC)N(Cc3ccccc3)C2=O)c1` (stereo not shown) [Cmp-8], for which the “Activity Ratio” value under setting [1] came to 1.00 and the “Activity Ratio” value under setting [3] amounted to 1.00. Moreover, the Dmax runs as follows: under setting [2], 2.80; under setting [3], 1.46.

On to `CCCCCCCCCCCCCCCCOC(=O)c1ccc(Cl)c(NC(=O)C(Oc2ccc(S(C)(=O)=O)cc2NS(C)(=O)=O)C(=O)C(C)(C)C)c1` (stereo not shown) [Cmp-9], for which the “increase in activity over comparative Cmp-8” value (Table IV coating set) stood at 37%. For the same compound, the “Activity Ratio” value by setting is: under setting [1], 1.37; under setting [3], 1.40. Moreover, the Dmax under setting [2] was 3.83 and the Dmax under setting [3] is reported as 2.07. Further, the “increase / difference in activity” value (second coating set (Table V), reduced levels, vs Cmp-8 / pivaloylacetanilide couplers) worked out at 40%.

For `CCCCCCCCCCCCS(=O)(=O)c1ccc(NC(=O)C(Oc2ccc(S(=O)(=O)c3ccc(O)cc3)cc2)C(=O)c2c(-c3ccccc3)n(C)c3ccccc23)c(Cl)c1` (stereo not shown) [Coupler C-4], under setting [3], the “Activity Ratio” value was 1.67 and the Dmax is 2.44.

`CCCCCCCCCCCCS(=O)(=O)c1ccc(NC(=O)C(Oc2ccc(C(=O)O)cc2)C(=O)c2c(-c3ccccc3)n(C)c3ccccc23)c(Cl)c1` (stereo not shown) [Coupler C-6]: under setting [3], the “Activity Ratio” value was found to be 1.75 and the Dmax is listed as 2.56.

Turning to `CCCCCCCCCCCCS(=O)(=O)c1ccc(NC(=O)C(Oc2ccc(S(C)(=O)=O)cc2NS(C)(=O)=O)C(=O)c2c(-c3ccccc3)n(C)c3ccccc23)c(Cl)c1` (stereo not shown) [Coupler C-7], under setting [3], the “Activity Ratio” value turned out to be 1.83 and the Dmax is reported as 2.67.

For `CCCCCCCCCCCCS(=O)(=O)c1ccc(NC(=O)C(Oc2ccc(S(C)(=O)=O)cc2NC(C)=O)C(=O)c2c(-c3ccccc3)n(C)c3ccccc23)c(Cl)c1` (stereo not shown) [Coupler C-8], under setting [3], the “Activity Ratio” value stood at 1.45 and the Dmax came to 2.12.

For `CCCCCCCCCCCCNS(=O)(=O)c1ccc(NC(=O)C(Oc2ccc(S(C)(=O)=O)cc2NC(C)=O)C(=O)c2c(-c3ccccc3)n(C)c3ccccc23)c(Cl)c1` (stereo not shown) [Coupler C-9], under setting [3], the “Activity Ratio” value is 1.35 and the Dmax is on record as 1.97.

Regarding `CCCCCCCCCCCCNS(=O)(=O)c1ccc(NC(=O)C(Oc2ccc(S(=O)(=O)c3ccc(O)cc3)cc2)C(=O)c2c(-c3ccccc3)n(C)c3ccccc23)c(Cl)c1` (stereo not shown) [Coupler C-10], under setting [3], the “Activity Ratio” value is recorded as 1.68 and the Dmax is recorded as 2.45.
